The text below walks through data of paper doi:10.1101/2025.05.29.656301.

Chains of the proteins cited; added tags and fusions are not shown.
UniProt P61586: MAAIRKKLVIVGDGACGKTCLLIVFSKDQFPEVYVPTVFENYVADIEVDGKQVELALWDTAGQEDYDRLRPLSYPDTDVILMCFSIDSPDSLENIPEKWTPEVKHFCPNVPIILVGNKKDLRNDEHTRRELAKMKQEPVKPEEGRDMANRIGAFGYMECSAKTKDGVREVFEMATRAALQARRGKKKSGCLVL

No constants are given. Whether binding was seen depends on the method and setting. Binding seen in cells or lysates may run through a third protein. Some entries that bind do so weakly or less than the wild type. For some assays here: Sequences can lack the tags named with a protein.

In experiment [1] the target is T1, CD20 WT with C-terminal flag-tag (human) (UniProt P11836).
T1 sequence: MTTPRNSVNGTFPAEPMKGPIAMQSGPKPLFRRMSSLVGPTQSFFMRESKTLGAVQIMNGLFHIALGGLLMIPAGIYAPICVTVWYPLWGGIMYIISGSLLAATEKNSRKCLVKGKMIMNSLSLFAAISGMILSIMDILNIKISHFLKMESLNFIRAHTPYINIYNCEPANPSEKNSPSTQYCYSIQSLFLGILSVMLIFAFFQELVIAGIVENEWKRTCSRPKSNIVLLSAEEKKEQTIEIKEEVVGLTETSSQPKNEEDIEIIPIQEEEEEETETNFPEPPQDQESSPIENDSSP
The experiment in a line: proximity ligation.

For experiment [2], the target named is T2, CD20 (endogenous) (human (endogenous in Ramos and healthy donor B cells)) (UniProt P11836).
T2 sequence: T1 sequence
Description: proximity ligation.

Regarding “RhoA (endogenous) (from UniProt P61586 1-193)”, the binding entry in experiment [1] and in experiment [2] was “binds” throughout.
